System: proteome of M. galloprovincialis plantigrade larvae
Assay: Antifouling targets by label-free shotgun proteomics
Parameters: species or system Mytilus galloprovincialis

Structure (SMILES)	number of proteins with altered abundances (larvae exposed at 12.5 and 50 uM)	number of proteins with significant change of abundances (larvae exposed at 6.25 and 25 uM)	detection of two putative proximal thread matrix proteins (TMPs) (larvae exposed at 6.25 and 25 uM, versus control group)
O=c1c2ccccc2oc2c(O)c(O)ccc12 [3,4dOHx, 3,4-dihydroxy-9H-xanthen-9-one]	24 proteins		
CC1(C)CCc2cc3c(=O)c4ccccc4oc3c(O)c2O1 [XP13, 12-hydroxy-2,2-dimethyl-3,4-dihydro-2H,6H-pyrano[3,2-b]xanthen-6-one]		14 proteins	become undetected
